Only a part is listed here, and it is no random draw. The calls were merged from several studies; some rest on single wells. The list shows a part of the results.
Columns and labels:
Conditions in all cases: stereoisomer not certain
[1] = test system: T1, O5AU1
T1 sequence (whole entry): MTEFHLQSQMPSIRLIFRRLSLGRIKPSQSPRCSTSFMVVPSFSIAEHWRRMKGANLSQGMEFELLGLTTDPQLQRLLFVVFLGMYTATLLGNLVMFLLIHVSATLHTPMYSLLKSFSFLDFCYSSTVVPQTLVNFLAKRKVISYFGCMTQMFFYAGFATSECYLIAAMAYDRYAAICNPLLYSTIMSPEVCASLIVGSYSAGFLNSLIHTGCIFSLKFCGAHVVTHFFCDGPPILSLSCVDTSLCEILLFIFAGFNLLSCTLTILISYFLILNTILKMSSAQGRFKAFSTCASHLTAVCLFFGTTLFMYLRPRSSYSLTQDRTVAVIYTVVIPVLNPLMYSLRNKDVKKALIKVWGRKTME
How it was run: (§1)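 Whether a receptor–molecule pair is responsive (active) rests on the original authors' judgment that its measured signal was statistically different from baseline. Pairs without that judgment are non-responsive (inactive). Sources used varied assay methods, commonly transient luciferase assays in mammalian cell lines.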

[2] = test system: T2, O5H14
T2 sequence (whole entry): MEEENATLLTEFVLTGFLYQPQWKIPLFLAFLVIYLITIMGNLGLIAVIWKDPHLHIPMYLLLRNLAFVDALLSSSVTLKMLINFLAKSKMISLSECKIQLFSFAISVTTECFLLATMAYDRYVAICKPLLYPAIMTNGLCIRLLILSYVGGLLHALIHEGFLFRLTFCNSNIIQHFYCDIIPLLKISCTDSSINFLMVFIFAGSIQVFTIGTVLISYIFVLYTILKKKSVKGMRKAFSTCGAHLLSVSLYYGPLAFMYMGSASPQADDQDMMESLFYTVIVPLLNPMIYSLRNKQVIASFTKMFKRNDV
How it was run: as §1

[3] = test system: T3, O6C68
T3 sequence (whole entry): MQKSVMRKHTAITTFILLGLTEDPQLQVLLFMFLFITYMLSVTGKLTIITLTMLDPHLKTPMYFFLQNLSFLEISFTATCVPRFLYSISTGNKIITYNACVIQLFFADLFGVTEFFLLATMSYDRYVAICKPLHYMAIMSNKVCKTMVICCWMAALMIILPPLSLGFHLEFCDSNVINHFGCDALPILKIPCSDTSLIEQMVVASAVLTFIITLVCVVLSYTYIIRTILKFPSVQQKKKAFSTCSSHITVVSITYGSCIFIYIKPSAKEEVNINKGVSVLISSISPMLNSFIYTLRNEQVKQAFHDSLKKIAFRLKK
How it was run: as §1

[4] = test system: T4, O6C70
T4 sequence (whole entry): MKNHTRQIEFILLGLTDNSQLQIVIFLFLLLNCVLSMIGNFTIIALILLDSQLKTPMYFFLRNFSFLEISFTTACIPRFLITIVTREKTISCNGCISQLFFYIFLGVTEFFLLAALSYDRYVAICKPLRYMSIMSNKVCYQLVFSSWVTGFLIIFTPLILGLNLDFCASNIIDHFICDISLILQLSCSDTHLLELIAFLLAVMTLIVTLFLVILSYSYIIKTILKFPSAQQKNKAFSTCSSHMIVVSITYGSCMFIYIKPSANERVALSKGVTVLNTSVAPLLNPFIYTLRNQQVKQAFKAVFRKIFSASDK
How it was run: as §1

[5] = test system: T5, O7E24
T5 sequence (whole entry): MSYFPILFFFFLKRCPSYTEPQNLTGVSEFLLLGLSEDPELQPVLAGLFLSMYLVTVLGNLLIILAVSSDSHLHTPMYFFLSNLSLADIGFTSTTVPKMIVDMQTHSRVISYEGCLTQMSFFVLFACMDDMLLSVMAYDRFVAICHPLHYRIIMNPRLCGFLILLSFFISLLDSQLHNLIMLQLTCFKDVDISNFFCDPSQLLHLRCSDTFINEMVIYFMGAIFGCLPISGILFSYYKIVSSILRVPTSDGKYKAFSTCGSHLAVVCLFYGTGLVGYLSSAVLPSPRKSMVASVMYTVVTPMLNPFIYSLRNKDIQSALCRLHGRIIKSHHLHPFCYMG
How it was run: as §1

[6] = biological target: T6, OR10A3 (Homo sapiens) (UniProt P58181)
T6 sequence (whole entry): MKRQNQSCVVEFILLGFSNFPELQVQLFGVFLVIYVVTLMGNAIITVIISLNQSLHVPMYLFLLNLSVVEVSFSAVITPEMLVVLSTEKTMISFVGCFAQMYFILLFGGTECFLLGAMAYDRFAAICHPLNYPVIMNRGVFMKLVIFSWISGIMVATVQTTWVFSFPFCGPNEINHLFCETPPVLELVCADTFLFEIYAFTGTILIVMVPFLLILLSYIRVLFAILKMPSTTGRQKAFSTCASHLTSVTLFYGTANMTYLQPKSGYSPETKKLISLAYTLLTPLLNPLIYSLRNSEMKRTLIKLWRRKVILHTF
How it was run: as §1

[7] = biological target: T7, OR10A5 (Homo sapiens) (UniProt Q9H207)
T7 sequence (whole entry): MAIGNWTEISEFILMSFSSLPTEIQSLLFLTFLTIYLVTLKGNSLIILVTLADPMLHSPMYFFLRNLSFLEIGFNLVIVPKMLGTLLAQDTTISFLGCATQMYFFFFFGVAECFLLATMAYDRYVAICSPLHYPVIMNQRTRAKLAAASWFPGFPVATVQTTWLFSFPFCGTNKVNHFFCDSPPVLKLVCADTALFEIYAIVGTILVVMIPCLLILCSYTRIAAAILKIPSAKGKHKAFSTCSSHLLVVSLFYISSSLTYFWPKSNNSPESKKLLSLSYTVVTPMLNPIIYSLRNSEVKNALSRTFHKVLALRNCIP
How it was run: as §1

[8] = biological target: T8, OR10A6 (Homo sapiens) (UniProt Q8NH74)
T8 sequence (whole entry): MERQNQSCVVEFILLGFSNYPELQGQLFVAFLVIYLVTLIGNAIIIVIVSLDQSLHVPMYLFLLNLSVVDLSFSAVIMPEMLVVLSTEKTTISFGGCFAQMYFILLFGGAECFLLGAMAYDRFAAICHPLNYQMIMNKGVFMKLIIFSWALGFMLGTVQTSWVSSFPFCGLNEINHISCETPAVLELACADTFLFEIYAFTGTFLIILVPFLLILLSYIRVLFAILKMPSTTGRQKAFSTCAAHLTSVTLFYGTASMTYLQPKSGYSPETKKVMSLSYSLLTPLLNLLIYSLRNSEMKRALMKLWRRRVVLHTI
How it was run: as §1

[9] = biological target: T9, OR10A7 (Homo sapiens) (UniProt Q8NGE5)
T9 sequence (whole entry): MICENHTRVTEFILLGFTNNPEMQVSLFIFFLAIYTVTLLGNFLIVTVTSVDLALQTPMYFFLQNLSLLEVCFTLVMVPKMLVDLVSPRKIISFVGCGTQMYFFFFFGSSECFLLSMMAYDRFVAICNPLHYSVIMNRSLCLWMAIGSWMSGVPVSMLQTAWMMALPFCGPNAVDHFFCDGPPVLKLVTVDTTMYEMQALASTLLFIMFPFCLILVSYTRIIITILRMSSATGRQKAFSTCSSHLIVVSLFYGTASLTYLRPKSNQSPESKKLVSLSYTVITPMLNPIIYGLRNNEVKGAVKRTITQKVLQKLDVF
How it was run: as §1

[10] = biological target: T10, OR10AG1 (Homo sapiens) (UniProt Q8NH19)
T10 sequence (whole entry): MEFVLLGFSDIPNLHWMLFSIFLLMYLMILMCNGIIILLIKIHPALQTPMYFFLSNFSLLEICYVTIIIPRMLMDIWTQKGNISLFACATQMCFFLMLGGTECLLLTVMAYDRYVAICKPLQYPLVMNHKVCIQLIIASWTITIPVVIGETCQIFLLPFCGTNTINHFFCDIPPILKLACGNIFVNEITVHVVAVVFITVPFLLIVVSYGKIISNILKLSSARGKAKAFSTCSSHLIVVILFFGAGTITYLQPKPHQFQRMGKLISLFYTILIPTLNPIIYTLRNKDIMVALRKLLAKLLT
How it was run: as §1

Measured: odorant receptor agonist call;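 note: active if original authors judged signal statistically different from baseline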

CS
inactive: [1] | [2] | [3] | [4] | [5] | [6] | [7] | [8] | [9] | [10]

CCC(C)=O
inactive: [1] | [2] | [3] | [4] | [5] | [6] | [7] | [8] | [9] | [10]

CCCCOC(C)=O
inactive: [1] | [2] | [3] | [4] | [5] | [6] | [7] | [8] | [9] | [10]
